These are literature values, as cited in patent publication US5342947A, “Preparation of water soluble camptothecin derivatives” (Glaxo Inc., priority 1992, dated 1994).

The structures appear in SMILES notation.

For the series the following is noted: in words, background; cited from earlier work.

For the compound `CC[C@@]1(O)C(=O)OCc2c1cc1n(c2=O)Cc2cc3ccccc3nc2-1` [camptothecin, Camptothecin], the “solubility in water / physiologically compatible, aqueous media” value is “essentially insoluble”.
